Results published in PubChem BioAssay AID1347075 (National Center for Advancing Translational Sciences (NCATS), 2019).
In all, about 400,000 compounds went through this assay and about 5,500 (1.4%) were called active. The inconclusive results got no clear call from the source; some entries with a clear call stand among them for comparison. The call rests on the fitted dose curve; in most records, active means well fitted cell-killing curve with a large enough effect; inconclusive means small, poorly fitted or top-dose-only effect, or effect the other way; inactive means flat fitted curve, though single readings scatter. Potencies of inconclusive entries are doubtful fits and often do not repeat.

Assay: qHTS assay for MDR1-selective chemotherapeutics: Primary screen using the parental adenocarcinoma cell KB-3-1; further: nearly all actives have a fitted effect of over 60% in size
Conditions: KB-3-1 viability, CellTiter-Glo ATP luminescence, 72 h; series mostly up to 46.1 µM
Summary of the method: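 KB-3-1 cells, DMEM (no phenol red) + 10% FBS; compound by pin transfer, 72 h, 37 °C. Readout: CellTiter-Glo luminescence after 10 min. Data normalized, curve-fitted.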
Potency means the concentration at half of the fitted maximal effect.

SMILES	Potency
O=C(CSc1nc2ccccc2o1)N1c2ccccc2Sc2ccc(C(F)(F)F)cc21	inconclusive: 16.4 µM [cytotoxic, single point]
COc1ccc(C2CC3(CC(C)(C)NC(SC)=N3)Oc3cc(O)cc(C)c32)cc1 (stereo not given)	inconclusive: 14.6 µM [cytotoxic, partial curve]
CCCCCc1ccc(-c2cn(Cc3ccc4c(c3)C(=O)c3ccccc3C4=O)nn2)cc1	inactive
Cc1nn(C)c(C)c1NC(=O)c1cc2nc(-c3ccco3)cc(C(F)(F)F)n2n1	inconclusive: 18.4 µM [rising, single point]
CCN(CC)C(=O)c1ccc(CS(=O)(=O)Cc2ccccc2)cc1	inactive
COc1ccc2cc1Oc1ccc(cc1)CC1c3c(cc(OC)c4c3Oc3cc5c(cc3O4)CCNC5C2)CCN1C (stereo not given)	active: 16.4 µM
CCOc1ccc(CCNC(=O)c2ccc(-c3nc(COc4ccc(C)cc4)c(C)o3)cc2)cc1	inactive
CCOc1cc(S(=O)(=O)N2CC=C(c3ccc(F)cc3)CC2)c(OCC)cc1-n1cnnn1	inconclusive: 23.1 µM [cytotoxic, single point]
COc1cc2cccc(OC)c(=O)c2c(O)c1OC	inconclusive: 11.6 µM [rising, partial curve, poor fit]
Cc1ccc(NC(=O)c2nc[nH]c2C(=O)NCCN(CCNC(=O)c2[nH]cnc2C(=O)Nc2ccc(C)cc2)CCNC(=O)c2[nH]cnc2C(=O)Nc2ccc(C)cc2)cc1	inconclusive: 7.31 µM [cytotoxic, partial curve, poor fit]
NC(=O)c1sc2nc(-c3cccs3)ccc2c1N	inconclusive: 29.1 µM [cytotoxic, single point]
CCc1ccc(NC(=O)c2ccc3c(=O)n4c(nc3c2)CCCCC4)cc1	inconclusive: 13 µM [cytotoxic, partial curve, poor fit]
CC1=C(C(=O)N(C)C)CC(CC(=O)NC(c2ccccc2)c2ccccc2)C(=O)N1CCCN1CCCC1=O (stereo not given)	inconclusive: 9.2 µM [rising, partial curve, poor fit]
COC(=O)c1ccc(NC(=O)CC2C(=O)N(c3ccc(C)cc3)C(=O)N2CC(C)C)cc1 (stereo not given)	inactive
COC(=O)c1ccc(OC)c(Cn2c(=O)n(-c3cccc(Cl)c3)c(=O)c3c4c(sc32)CN(C(C)=O)CC4)c1	inactive
Nc1nc(CN2CCN(c3cccc(Cl)c3)CC2)nc(N2CCCc3ccccc32)n1	inconclusive: 29.1 µM [rising, single point]
O=C(/C=C/c1ccc(Cl)c([N+](=O)[O-])c1)c1cccnc1	inconclusive: 18.4 µM [cytotoxic, single point]
COc1ccc(-c2csc3ncnc(N4CCN(c5ccccc5)CC4)c23)cc1	inconclusive: 32.6 µM [cytotoxic, single point]
CCC(C)(C)c1ccc(OCCCC[n+]2ccccc2)c(C(C)(C)CC)c1	active: 9.2 µM
CCOC(=O)C1CCCN(c2cc(C)nc3cc(-c4ccc(Cl)cc4)nn23)C1 (stereo not given)	inactive

Sorted by heavy-atom count (smallest number first): three of the compounds above.
SMILES	Potency
CCC(C)(C)c1ccc(OCCCC[n+]2ccccc2)c(C(C)(C)CC)c1	active: 9.2 µM
Cc1nn(C)c(C)c1NC(=O)c1cc2nc(-c3ccco3)cc(C(F)(F)F)n2n1	inconclusive: 18.4 µM [rising, single point]
CCOc1ccc(CCNC(=O)c2ccc(-c3nc(COc4ccc(C)cc4)c(C)o3)cc2)cc1	inactive

More structures follow.

SMILES	Potency
C=CCn1c(SCc2nc3sc4c(c3c(=O)[nH]2)CCCC4)nc2ccccc2c1=O	inactive
Cc1cc(C(=O)CSc2nnc(-c3cccs3)o2)c(C)n1-c1ccccc1	inconclusive: 20.6 µM [cytotoxic, single point]
Cc1ccc(C)c(S(=O)(=O)N2CCN(C(=O)Cc3sc(C)nc3-c3ccc(F)cc3)CC2)c1	inconclusive: 29.1 µM [cytotoxic, single point]
CCN(CC)C(=O)C1=C(C)N(Cc2ccccc2)C(=O)C(CC(=O)NCc2ccco2)C1 (stereo not given)	inactive
CC1(c2ccccc2)NC(=O)N(CC(=O)Nc2cccc(/C=C/c3ccccn3)c2)C1=O (stereo not given)	inactive
COc1ccc(-c2sc3cc(OC)c(OC)cc3c2C#CC2(O)CCCCC2)cc1	inconclusive: 29.1 µM [cytotoxic, single point]
CCc1nc(N)nc(N)c1-c1ccc(Cl)c([N+](=O)[O-])c1	active: 0.651 µM
O=C(COc1cccc2ccccc12)Nc1ccc(Cl)cc1C(=O)O	inconclusive: 29.1 µM [cytotoxic, single point]
Cc1ccc(C(=O)N2CCN(c3ccccc3F)CC2)cc1NC1=NC2CS(=O)(=O)CC2S1 (stereo not given)	inconclusive: 11.6 µM [rising, partial curve, poor fit]
C=CCNC(=S)N/N=C/c1cccc([N+](=O)[O-])c1	inconclusive: 23.1 µM [rising, single point]
COc1ccc(C(C[N+](=O)[O-])c2c(C)cc3ccccn23)c(OC)c1 (stereo not given)	inconclusive: 23.1 µM [cytotoxic, single point]
CN(C)CCCN(C(=O)c1ccc(S(=O)(=O)N(C)C2CCCCC2)cc1)c1nc2ccc(Br)cc2s1	inconclusive: 29.1 µM [cytotoxic, single point]
Cc1ccccc1Nc1c(C)c(C)nc2ncnn12	inactive
COc1ccc(C(=O)COc2nc(C)cc(C)c2C#N)cc1	inconclusive: 23.1 µM [rising, single point]
COc1cc(NC(=O)CSc2nc3ccccc3c(=O)n2C)ccc1NC(=O)c1ccco1	inconclusive: 23.1 µM [cytotoxic, single point]
COCCN=c1scc(-c2cc(OC)c(OC)c(OC)c2)n1/N=C/c1c(C)[nH]c2ccccc12	inconclusive: 23.1 µM [cytotoxic, single point]
CCOC(=O)c1c(CN2CCN(c3ccccc3)CC2)oc2cc(Br)c(O)cc12	inconclusive: 25.9 µM [cytotoxic, single point]
C(=C\c1ccccc1)/CN1CCN(C(c2ccnc3ccccc23)c2nnnn2C2CCCCC2)CC1 (stereo not given)	inconclusive: 29.1 µM [cytotoxic, single point]
O=C(CSc1nc2ccc(Cl)cc2[nH]1)Nc1ccc2[nH]c(=O)[nH]c2c1	inconclusive: 6.51 µM [rising, full curve]
COc1ccc(NC(=O)C2(C)CCN2Cc2ccc(SC)cc2)cc1OC (stereo not given)	inconclusive: 29.1 µM [cytotoxic, single point]
